Experimental data published in US8546524B2 (The United States of America, as represented by the …, priority 2006, dated 2013).
End groups of sequences in plain letters are not given here.

Test: general procedure: Fmoc solid-phase peptide synthesis; Rink-amide resin; HBTU/HOBt
Settings: whole synthesis, Zorbax 300SB-C3 column, 0-100% 25 min gradient of 0.5% acetic acid in water and 0.5% acetic acid in acetonitrile

AcLTYAWHTSFKAL
final purity (method not given): 100%

AcLAKFSTHWAYTLK(ε-Pal)-All-D
final purity (method not given): 97%

PalTYAWHTSFKAL
final purity (method not given): 98%

AcAKFSTHWAYTLK(ε-Pal)-All-D
final purity (method not given): 97%

SEKAASKINETMLRK-[…] ε-Pal
final purity (method not given): 97%

PalRGVMTLFSIKSNH
final purity (method not given): 97%

PaILTYAWHTSFKA
final purity (method not given): 98%

PalLTYAWHTSFKALGTTYQP
final purity (method not given): 96%

GTTYQPLSGKTSYK-[…] ε-Pal
final purity (method not given): 98%

AcTYAWHTSFKA
final purity (method not given): 99%

AcLTYAWHTSFKALGTTYQPLSGKTSYK-ε-Pal
final purity (method not given): 95%

PalRGVMTLFSIKSNHPGLLSEKAASKINETMLR
final purity (method not given): 95%

VWFVVLTYAWHTSFKAL
final purity (method not given): 96%

RGVMTLFSIKSNHPGLLSEKAASKINETMLRK-ε […]Pal
final purity (method not given): 95%

PalLTYAWHTSFKALGTTYQPLSGKYSY
final purity (method not given): 95%

LLSEKAASKINETMLRK-[…] ε-Pal
final purity (method not given): 96%

PalLTYAWHTSFKALGTTYQPLSGKTSY
final purity (method not given): 95%

PalLTYAWHTSFK
final purity (method not given): 97%

AcYAWHTSFKALGTTYQPLSGKTSYK-[…] ε-Pal
final purity (method not given): 95%

PalLTYAWHTSFKALGTTYQPLSG
final purity (method not given): 96%

LFSIKSNHPGLLSEKAASKINETMLRK-[…] ε-Pal
final purity (method not given): 95%

PalLFSIKSNHPGLLSEKAASKINETMLR
final purity (method not given): 95%

PalRGVMTLFSIKSNHPGLLSEKA
final purity (method not given): 96%

PalLTYAWHTSFKAL (All-D)
final purity (method not given): 96%

PalLTYAWHTSFKAL
final purity (method not given): 96%

PalLTYAWHTSFKALGTTYQPLSGKTSYK(ε-Pal)
final purity (method not given): 95%

Ac-LTYAWHTSFKAL-Penetratin
final purity (method not given): 95%

AcKFSTHWAYTLK(ε-Pal)All-D
final purity (method not given): 98%

PalRGVMTLFSIKSNHPGLLS
final purity (method not given): 96%

WFVVLTYAWHTSFKAL
final purity (method not given): 96%

AcLTYAWHTSFKAL (All-D)
final purity (method not given): 98%
